Results published in article PMC9371351.
No constants are given. Whether binding was seen depends on the method and setting. In cells and extracts the contact can be indirect. Some results given as binding are weak or reduced against the parent protein; the word gives no strength.

Protein sequences, listed by entry. Tags and fused reporters are not part of them.
UniProt F5HCV3: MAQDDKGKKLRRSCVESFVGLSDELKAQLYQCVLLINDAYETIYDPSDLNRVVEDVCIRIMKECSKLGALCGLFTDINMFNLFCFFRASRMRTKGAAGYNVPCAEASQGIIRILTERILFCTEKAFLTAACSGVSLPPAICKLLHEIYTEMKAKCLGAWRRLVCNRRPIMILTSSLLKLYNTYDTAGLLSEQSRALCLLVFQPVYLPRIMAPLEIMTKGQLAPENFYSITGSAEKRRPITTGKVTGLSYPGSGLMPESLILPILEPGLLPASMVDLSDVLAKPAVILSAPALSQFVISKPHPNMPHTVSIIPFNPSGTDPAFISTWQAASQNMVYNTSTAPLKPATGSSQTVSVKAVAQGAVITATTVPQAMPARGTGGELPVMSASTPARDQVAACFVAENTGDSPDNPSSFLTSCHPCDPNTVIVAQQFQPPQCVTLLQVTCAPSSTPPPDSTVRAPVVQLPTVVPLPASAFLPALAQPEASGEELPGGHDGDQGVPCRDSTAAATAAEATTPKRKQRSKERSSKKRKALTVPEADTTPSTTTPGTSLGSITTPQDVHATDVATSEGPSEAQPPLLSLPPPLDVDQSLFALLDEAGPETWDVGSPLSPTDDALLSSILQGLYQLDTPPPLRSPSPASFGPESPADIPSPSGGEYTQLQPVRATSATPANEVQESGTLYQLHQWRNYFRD
UniProt Q8IY18: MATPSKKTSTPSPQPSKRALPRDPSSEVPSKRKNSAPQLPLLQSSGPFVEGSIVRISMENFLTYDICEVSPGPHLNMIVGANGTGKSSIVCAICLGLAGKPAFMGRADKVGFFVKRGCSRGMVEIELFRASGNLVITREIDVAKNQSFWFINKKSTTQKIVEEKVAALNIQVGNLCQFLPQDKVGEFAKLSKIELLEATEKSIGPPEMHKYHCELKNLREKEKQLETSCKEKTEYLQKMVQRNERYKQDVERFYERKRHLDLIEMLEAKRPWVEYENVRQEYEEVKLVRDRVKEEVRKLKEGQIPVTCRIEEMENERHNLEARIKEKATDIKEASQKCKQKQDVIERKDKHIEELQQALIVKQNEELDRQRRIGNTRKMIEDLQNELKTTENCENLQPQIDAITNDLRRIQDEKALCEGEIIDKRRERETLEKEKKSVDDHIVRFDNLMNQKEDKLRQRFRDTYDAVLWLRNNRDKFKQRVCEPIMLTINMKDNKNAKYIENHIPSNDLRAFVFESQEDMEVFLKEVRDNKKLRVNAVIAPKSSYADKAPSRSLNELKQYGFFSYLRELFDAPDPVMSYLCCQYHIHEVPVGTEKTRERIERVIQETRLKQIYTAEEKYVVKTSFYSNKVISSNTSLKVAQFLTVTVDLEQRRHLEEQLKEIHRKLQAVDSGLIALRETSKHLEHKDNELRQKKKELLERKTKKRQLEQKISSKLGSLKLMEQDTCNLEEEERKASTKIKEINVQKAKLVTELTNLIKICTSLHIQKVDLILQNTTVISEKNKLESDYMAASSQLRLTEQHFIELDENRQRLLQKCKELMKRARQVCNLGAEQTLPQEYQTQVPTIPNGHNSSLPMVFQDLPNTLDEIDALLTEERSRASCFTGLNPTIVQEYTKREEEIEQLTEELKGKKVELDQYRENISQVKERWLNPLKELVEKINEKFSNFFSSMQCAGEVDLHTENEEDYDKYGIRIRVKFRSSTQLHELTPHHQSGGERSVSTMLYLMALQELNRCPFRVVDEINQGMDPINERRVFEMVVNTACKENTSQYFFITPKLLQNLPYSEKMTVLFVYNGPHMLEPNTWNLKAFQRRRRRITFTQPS

How the values were obtained:
Test in all cases: co-IP
[1] = biological target: FLAG-RTA (KSHV replication and transcription activator, full-length) (KSHV) (UniProt F5HCV3)
[2] = biological target: T1, endogenous SMC6 (human (endogenous in iSLK.RGB)) (UniProt Q96SB8)
T1 sequence: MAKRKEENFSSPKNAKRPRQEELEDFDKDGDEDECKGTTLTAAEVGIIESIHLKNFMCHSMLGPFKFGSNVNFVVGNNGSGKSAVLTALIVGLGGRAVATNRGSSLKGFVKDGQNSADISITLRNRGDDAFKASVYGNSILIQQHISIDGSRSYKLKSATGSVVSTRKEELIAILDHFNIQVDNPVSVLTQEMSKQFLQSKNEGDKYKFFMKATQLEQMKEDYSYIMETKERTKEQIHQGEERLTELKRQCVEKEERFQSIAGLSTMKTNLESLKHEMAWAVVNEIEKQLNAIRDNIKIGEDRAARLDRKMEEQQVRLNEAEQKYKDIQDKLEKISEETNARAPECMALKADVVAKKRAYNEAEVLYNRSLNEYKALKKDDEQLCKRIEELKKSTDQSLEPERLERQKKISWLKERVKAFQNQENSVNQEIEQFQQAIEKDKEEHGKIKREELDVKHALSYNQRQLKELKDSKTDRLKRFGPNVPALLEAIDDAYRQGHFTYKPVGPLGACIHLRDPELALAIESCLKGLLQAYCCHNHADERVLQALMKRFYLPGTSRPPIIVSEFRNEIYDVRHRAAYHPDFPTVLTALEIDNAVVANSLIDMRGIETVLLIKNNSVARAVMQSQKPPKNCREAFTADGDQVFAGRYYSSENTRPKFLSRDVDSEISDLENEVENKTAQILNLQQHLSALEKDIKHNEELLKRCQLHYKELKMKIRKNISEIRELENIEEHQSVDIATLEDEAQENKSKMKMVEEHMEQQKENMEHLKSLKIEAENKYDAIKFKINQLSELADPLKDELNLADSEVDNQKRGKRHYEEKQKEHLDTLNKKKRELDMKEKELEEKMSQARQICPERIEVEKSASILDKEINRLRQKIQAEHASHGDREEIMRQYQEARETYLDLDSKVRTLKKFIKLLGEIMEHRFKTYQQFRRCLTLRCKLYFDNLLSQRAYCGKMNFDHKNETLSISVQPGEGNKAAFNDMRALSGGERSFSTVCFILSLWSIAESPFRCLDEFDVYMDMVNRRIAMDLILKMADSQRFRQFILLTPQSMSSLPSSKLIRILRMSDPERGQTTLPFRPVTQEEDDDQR

[3] = biological target: RTA expressed in Dox-induced iSLK.RGB cells (KSHV) (UniProt F5HCV3)

HA-SMC5 (structural maintenance of chromosomes protein 5) (from UniProt Q8IY18 1-1101)
binding [1]: binds

RTA expressed in Dox-induced iSLK.RGB cells (from UniProt F5HCV3 1-691)
binding [2]: binds

endogenous SMC5 (from UniProt Q8IY18 1-1101)
binding [3]: binds

B1: endogenous SMC6 (protein, UniProt Q96SB8 1-1091)
chain: MAKRKEENFSSPKNAKRPRQEELEDFDKDGDEDECKGTTLTAAEVGIIESIHLKNFMCHSMLGPFKFGSNVNFVVGNNGSGKSAVLTALIVGLGGRAVATNRGSSLKGFVKDGQNSADISITLRNRGDDAFKASVYGNSILIQQHISIDGSRSYKLKSATGSVVSTRKEELIAILDHFNIQVDNPVSVLTQEMSKQFLQSKNEGDKYKFFMKATQLEQMKEDYSYIMETKERTKEQIHQGEERLTELKRQCVEKEERFQSIAGLSTMKTNLESLKHEMAWAVVNEIEKQLNAIRDNIKIGEDRAARLDRKMEEQQVRLNEAEQKYKDIQDKLEKISEETNARAPECMALKADVVAKKRAYNEAEVLYNRSLNEYKALKKDDEQLCKRIEELKKSTDQSLEPERLERQKKISWLKERVKAFQNQENSVNQEIEQFQQAIEKDKEEHGKIKREELDVKHALSYNQRQLKELKDSKTDRLKRFGPNVPALLEAIDDAYRQGHFTYKPVGPLGACIHLRDPELALAIESCLKGLLQAYCCHNHADERVLQALMKRFYLPGTSRPPIIVSEFRNEIYDVRHRAAYHPDFPTVLTALEIDNAVVANSLIDMRGIETVLLIKNNSVARAVMQSQKPPKNCREAFTADGDQVFAGRYYSSENTRPKFLSRDVDSEISDLENEVENKTAQILNLQQHLSALEKDIKHNEELLKRCQLHYKELKMKIRKNISEIRELENIEEHQSVDIATLEDEAQENKSKMKMVEEHMEQQKENMEHLKSLKIEAENKYDAIKFKINQLSELADPLKDELNLADSEVDNQKRGKRHYEEKQKEHLDTLNKKKRELDMKEKELEEKMSQARQICPERIEVEKSASILDKEINRLRQKIQAEHASHGDREEIMRQYQEARETYLDLDSKVRTLKKFIKLLGEIMEHRFKTYQQFRRCLTLRCKLYFDNLLSQRAYCGKMNFDHKNETLSISVQPGEGNKAAFNDMRALSGGERSFSTVCFILSLWSIAESPFRCLDEFDVYMDMVNRRIAMDLILKMADSQRFRQFILLTPQSMSSLPSSKLIRILRMSDPERGQTTLPFRPVTQEEDDDQR
binding [3]: binds
